Assay [1] concerns the target Aβ(M1-40) (human). Briefly: gel filtration on Superdex75 and SDS PAGE of fractions, 8 µM Aβ40 and 0.8 µM Bri2 BRICHOS after 20 h at 37 °C.
For assay [2], the target named is Aβ(M1-42) (human). The experiment in a line: gel filtration on Superdex75 and SDS PAGE of fractions, 0 and 2 h incubation. Background: In gel filtration, larger molecules generally elute earlier.

No constants are given. Whether binding was seen depends on the method and setting. Some entries that bind do so weakly or less than the wild type.

As for “Bri2 BRICHOS (recombinant human Bri2 BRICHOS construct as described in Peng et al. 2010) (from UniProt Q9Y287 90-236)”, the binding entry in assay [1] and in assay [2] was “binds” throughout.

The record behind these values is US20140030274A1.
